Results reported in the supplement of paper PMC6078165.

Experiments:
[1] = test system: MDAMB436; test: relative JC-1 red fluorescence (viability) vs pre-drug, monoculture (fraction); higher = more viable cancer cells; details: coculture fibroblast: none (monoculture)
Method: (§1)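 JC-1 labelled TNBC cells grown in monoculture (density kept equal with unlabelled cancer cells) in 384-well plates in FluoroBrite medium, treated with one of 42 anticancer drugs at 0.1, 1, 10 or 100 uM. JC-1 red fluorescence (mitochondrial integrity, surrogate of apoptotic death) was read by plate reader every 8 h for 72 h. Values are normalised to each well's pre-drug value, with background from alamethicin. The stock of one drug was tenfold lower, so its dose labels may be too high. Monoculture values are repeated alongside each fibroblast plate and are averaged here.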

[2] = test system: MDAMB231; test: as above; details: coculture fibroblast: none (monoculture)
Method: as §1

CC(=O)O[C@@]12CO[C@@H]1C[C@H](O)[C@@]1(C)C(=O)[C@H](O)C3=C(C)[C@@H](OC(=O)[C@H](O)[C@@H](NC(=O)OC(C)(C)C)c4ccccc4)C[C@@](O)([C@@H](OC(=O)c4ccccc4)[C@H]21)C3(C)C [Docetaxel]
relative JC-1 red fluorescence
Details	8 h	16 h	24 h	32 h	40 h	48 h	56 h	64 h	72 h
[1], 0.1 µM	0.8591	0.703	0.726	0.681	0.662	0.656	0.656	0.664	0.669
[1], 1 µM	0.85114	0.785	0.785	0.7483	0.73	0.711	0.695	0.679	0.675
[1], 10 µM	0.911	0.8595	0.887	0.857	0.856	0.87	0.873	0.877	0.885
[1], 100 µM	0.84418	0.7783	0.77	0.729	0.713	0.691	0.672	0.656	0.653
[2], 0.1 µM	0.815	0.7712	0.716	0.665	0.633	0.632	0.625	0.658	0.67
[2], 1 µM	0.735	0.725	0.628	0.595	0.548	0.517	0.5	0.533	0.529
[2], 10 µM	0.809	0.735	0.82	0.718	0.697	0.716	0.708	0.759	0.77
[2], 100 µM	0.588	0.557	0.506	0.492	0.494	0.51	0.513	0.555	0.557

CC(=O)c1c(C)c2cnc(Nc3ccc(N4CCNCC4)cn3)nc2n(C2CCCC2)c1=O [Palbociclib]
relative JC-1 red fluorescence
Details	8 h	16 h	24 h	32 h	40 h	48 h	56 h	64 h	72 h
[1], 0.1 µM	0.8675	0.83	0.794	0.744	0.736	0.724	0.725	0.73	0.731
[1], 1 µM	0.886	0.788	0.823	0.783	0.771	0.778	0.768	0.76	0.766
[1], 10 µM	0.913	0.897	0.909	0.8503	0.848	0.8354	0.8403	0.834	0.823
[1], 100 µM	0.834	0.656	0.606	0.507	0.452	0.419	0.391	0.37	0.349
[2], 0.1 µM	0.7297	0.7056	0.579	0.605	0.55789	0.5442	0.505	0.512	0.503
[2], 1 µM	0.798	0.792	0.704	0.675	0.62	0.611	0.579	0.587	0.578
[2], 10 µM	0.9117	0.872	0.89323	0.942	0.9066	0.823	0.925	0.928	0.92
[2], 100 µM	0.646	0.55	0.485	0.408	0.37	0.326	0.264	0.257	0.235

Values are relative to the signal before dosing, not to a vehicle control; the signal also falls without drug.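 The tumor cells are basal-like or mesenchymal-like triple-negative breast cancer lines cultured without fibroblasts. Reduced red signal indicates lost mitochondrial integrity, serving as a proxy for apoptotic death.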
